In patent publication US12674178B2, “Methods for the evaluation of neutralizing antibodies for adeno-associated virus” (REGENTS OF THE UNIVERSITY OF MINNESOTA, priority 2020, dated 2026):
Entries after “also recorded” stand apart in the source; their conditions may differ. At least one compound was matched to its structure with a doubt left.

Columns and labels:
Type in all cases: cell-based, adeno-associated virus
AAV2 [1] = experiment: AAV2 neutralizing antibody (NAb) assay with CC pre-treated vs non-treated HEK293 cells; conditions: mouse serum/plasma after AAV2 injection, listed as CC
AAV8 = experiment: AAV8-Luc infection of HEK293 cells, luciferase readout
Description: (§1) HEK293 cells were infected with AAV8-Luciferase (Luc) or AAV2-Luc at an MOI of 5000 in the presence of several pharmacologically active drugs (TNFα+LPS, TNFα+IL-6, dorsomorphin (also known as “Compound C” or “CC”), SP600125, or rosiglitazone). The drugs were added 1 hour before injection with AAV-Luc. 24 hours after AAV-Luc was added, luciferase was detected, as further described in Example 2.
Method: Day 0: • 1. Remove culture medium (DMEM supplemented with 10% heat-inactivated FBS and 1% penicillin/streptomycin) from HEK293 cell culture, gently wash cells twice with 100 μL of PBS. Cells should be at low passage and approximately 80% confluent without being overgrown. Harvest cells by trypsinization and perform a cell count. • 2. Resuspend cells in complete DMEM culture medium at 200,000 cells/mL. Seed cells in 96-well plates with black or white walls and clear bottoms: 20,000 cells/well in 100 μL of complete media. • 3. Incubate cells overnight in C02 incubator at 37° C. Day 1: • 1. Confirm microscopically that cells are 50-80% confluent. • 2. Activate cells by adding 50 μL/well of warmed (37° C.) serum-free DMEM containing 30 μM CC (final concentration of CC: 10 μM). • 3. Incubate in CO2 incubator at 37° C. for one hour. • 4. Prepare serial dilutions of test samples (for example, mouse or human serum) using HI-FBS as the diluent in a U-bottomed or V-bottomed 96-well plate. Prepare a working solution of AAV. First, calculate the working concentration of AAV which is based on number of cells in well and multiplicity of infection (MOI) will be used. For example, if on the day of infection cells are 50% confluent (assuming that 100% confluence consists of 50,000 cells/well) then in each well will be added AAV/Luc at MOI=2000 vg/well in 5 μl, the working virus concentration is calculated by following: 50,000*(% confluence/100)*MOI*(1000 μl/5 μl)=vg/ml 50,000*(50/100)*2,000*200=1×10^10 vg/ml−working concentration of AAV/Luc • For the whole 96-well plate, 800 μl of AAV/Luc plus extra is needed (if to mix 25 μl of AAV for each sample in triplicate, then 96 wells/3*25 μl=800 μl). • If the stock of AAV8/Luc is 1×10^12/ml, it should be diluted with PBS to a working concentration of 1×10^10/ml (dilution factor 100), then for 1 mL of working concentration of AAV 10 μL of stock AAV-Luc should be diluted with 990 μL PBS. • 5. Mix 25 μL of each dilution with 25 μL AAV-Luc (ratio 1:1) in a new U or V-bottomed 96-well plate and incubate for one hour at 37° C. • For the positive control, mix 25 μL AAV-Luc with 25 μL diluent. • For the negative control (background), mix 25 μl diluent (HI-FBS) with 25 μL PBS. • 6. Add 10 μl per well of AAV/sample mix to the plate with HEK293 cells (pre-treated with CC). Each dilution was analyzed at least in triplicate. Positive control: maximum (MAX) infection level (AAV mixed with diluent HI-FBS); background: HI-FBS mixed with PBS (MIN) and no AAV. Protect plate from light (for example, wrap the plate in aluminum foil) and incubate in CO2 incubator at 37° C. for 24 hours. Day 2 • 1. Thaw the Bright Glo Luciferase assay reagent at room temperature (18° C. to 25° C.) in the dark. • 2. Remove media from the plate (for example, by quickly inverting the plate). Without washing the cells, add 50 μL of PBS per well. • 3. Set up spectrophotometer to read chemiluminescence. If the spectrophotometer is BioTek the read conditions are: 500 ms, gain 125-135, height of plate 3.75 mm. Add 50 μL of Bright Glo substrate to each well, incubate plate 3 min in the dark and then read. For maximal light intensity, samples should be measured within 15 minutes of reagent addition.
First, escalation doses of CC were used to identify the optimal drug concentration for AAV serotype 8 (FIG. 2A).
In the next step of protocol optimization, 10 μM CC was added to cells at different time points before or after AAV 8 infection.

[2] = system: AAV serotypes 1, 2, 3, 5, 6, 7, 8, 9, 10 and Anc80L65; experiment: Transduction efficiency of ten common AAV/Luc serotypes in HEK293 cells
AAV2 [3] = experiment: AAV2-Luc infection of HEK293 cells, luciferase readout; conditions: AAV2-Luc MOI 5000, drug added 1 hour before AAV, luciferase 24 hours after
Description: as §1
Method: Day 0: • 1. Remove culture medium (DMEM supplemented with 10% heat-inactivated FBS and 1% penicillin/streptomycin) from HEK293 cell culture, gently wash cells twice with 100 μL of PBS. Cells should be at low passage and approximately 80% confluent without being overgrown. Harvest cells by trypsinization and perform a cell count. • 2. […] Each dilution was analyzed at least in triplicate. […] Set up spectrophotometer to read chemiluminescence. If the spectrophotometer is BioTek the read conditions are: 500 ms, gain 125-135, height of plate 3.75 mm. Add 50 μL of Bright Glo substrate to each well, incubate plate 3 min in the dark and then read. For maximal light intensity, samples should be measured within 15 minutes of reagent addition.
The dramatic improvement of AAV8 transduction in vitro in the presence of CC prompted test to determine if similar effect could be achieved for other AAV serotypes. The transduction efficiency of ten common AAV serotypes at MOI 2000 vg/cell was analyzed. […]

[4] = 10 μM CC pretreatment, AAV8, 24 hours after infection

c1cc(-c2cnn3cc(-c4ccc(OCCN5CCCCC5)cc4)cnc23)ccn1 [dorsomorphin]
effect of CC on NAb titer (AAV2 [1]): does not affect NAb titer; also recorded: did not affect the value of NAb titer | time of CC addition giving maximum increase in AAV8-mediated luciferase expression (AAV8; 10 μM CC added at different time points before or after AAV8 infection): one hour prior to infection | luciferase activity compared to non-treated cells (AAV8; [4]): five times higher | luciferase values relative to background (AAV8; [4]): two orders higher than background | infection of HEK293 by AAV8 (luciferase) (AAV8; AAV8-Luc MOI 5000, drug added 1 hour before AAV, luciferase 24 hours after): significantly enhanced | dose dependence of luciferase activity on CC pretreatment (AAV8; escalating CC doses, AAV8, 24 hours after infection): dose-dependently increased luciferase activity | infectivity of AAV8/Luc (AAV8; pretreatment of HEK293 with CC, MOI=2,000, 24 hours): significantly increased infectivity | levels of luciferase, all tested serotypes, vs no pre-treatment ([2]; 10 μM CC pre-treatment, MOI 2000 vg/cell, listed as CC): significantly increased levels of luciferase for all tested serotypes; also recorded: enhanced the infectivity of all tested AAV serotypes | levels of luciferase expression for AAV10, AAV3, 5, 8 and 9 after pretreatment ([2]; CC pretreatment, MOI 2000): high enough to measure NAb titers | infection of HEK293 by AAV2 (luciferase) (AAV2 [3]): significantly enhanced
